The list shows a part of the results.
Assays:
Test in all cases: log2 fold change, soluble protein after heating vs DMSO (PISA); higher = thermal stabilisation; K562 lysate, 10 uM; active = over 0.2 and 3.5 SD of the protein, either way, in both replicates (recomputed)
[1] = compound: C#Cc1cccc(Nc2ncnc3cc(OCCOC)c(OCCOC)cc23)c1 [erlotinib]
Outline: (§1)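 Following dounce homogenisation of K562 pellets in PBS pH 7.4 with 1 mM MgCl2, crude extract at 1 mg/mL protein was incubated for 30 min with 10 μM compound. Aliquots were then heated for 3 min over 48°C-58°C and pooled, NP-40 was added to 0.5% at 4°C, and soluble protein was recovered as the supernatant at 21,000xg for 90 min. Channel-sum-equalised TMTpro 16plex LC-MS/MS quantified this protein. Each value, from duplicates, is a log-two fold change in thermal stability relative to solvent controls.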

The chains behind the UniProt entries cited, without tags or fusion partners. Where a name states a change or a piece, a line headed by the entry shows the natural chain unless it says otherwise.
UniProt O60512: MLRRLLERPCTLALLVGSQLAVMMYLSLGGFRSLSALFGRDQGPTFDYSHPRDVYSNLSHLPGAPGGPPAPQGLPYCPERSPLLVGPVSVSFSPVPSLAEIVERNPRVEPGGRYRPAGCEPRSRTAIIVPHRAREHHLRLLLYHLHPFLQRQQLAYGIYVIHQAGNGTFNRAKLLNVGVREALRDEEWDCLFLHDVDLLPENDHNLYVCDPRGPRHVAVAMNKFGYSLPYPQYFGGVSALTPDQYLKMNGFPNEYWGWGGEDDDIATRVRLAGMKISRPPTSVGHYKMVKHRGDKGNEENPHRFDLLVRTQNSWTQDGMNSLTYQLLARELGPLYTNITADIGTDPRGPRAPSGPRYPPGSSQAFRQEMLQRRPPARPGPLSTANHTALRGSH
UniProt Q92994: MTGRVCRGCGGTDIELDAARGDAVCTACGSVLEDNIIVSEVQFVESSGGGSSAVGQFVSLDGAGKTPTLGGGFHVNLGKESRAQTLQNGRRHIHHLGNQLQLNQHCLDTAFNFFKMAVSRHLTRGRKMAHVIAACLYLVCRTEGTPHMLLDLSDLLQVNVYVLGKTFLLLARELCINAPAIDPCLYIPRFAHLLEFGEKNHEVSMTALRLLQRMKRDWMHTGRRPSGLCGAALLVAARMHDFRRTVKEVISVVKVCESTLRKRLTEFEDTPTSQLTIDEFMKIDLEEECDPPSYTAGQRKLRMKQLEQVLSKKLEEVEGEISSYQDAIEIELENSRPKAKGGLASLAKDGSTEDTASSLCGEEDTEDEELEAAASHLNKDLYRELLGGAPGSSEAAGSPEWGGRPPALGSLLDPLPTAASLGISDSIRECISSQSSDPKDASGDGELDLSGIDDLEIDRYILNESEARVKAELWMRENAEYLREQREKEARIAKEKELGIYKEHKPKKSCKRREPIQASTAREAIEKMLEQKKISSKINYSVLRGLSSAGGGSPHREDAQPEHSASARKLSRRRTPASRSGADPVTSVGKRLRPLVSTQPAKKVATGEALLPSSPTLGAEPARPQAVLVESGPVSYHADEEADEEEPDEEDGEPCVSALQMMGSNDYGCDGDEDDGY

[2] = compound: C/C(=N\NC(=O)C1=CC(=CC=C1)S(=O)(=O)N2CCOCC2)/C3=C(C=CC(=C3)Cl)O
Outline: as §1

[3] = compound: C1=CC(=CC=C1C2=NC3=C(N2)C=C(C=C3)C(=O)N)OC4=CC=C(C=C4)Cl
Outline: as §1

[4] = compound: C1=CC2=C(C=CC(=C2)/C=C\3/C(=O)NC(=NCC4=CC=CS4)S3)N=C1
Outline: as §1

[5] = compound: C1=CC2=NC=CN=C2C=C1/C=C/3\C(=O)NC(=O)S3
Outline: as §1

[6] = compound: C1=CC=C(C=C1)C2=NC(=C(N2)C3=CC=NC=C3)C4=CC(=C(C=C4)Cl)O
Outline: as §1

[7] = compound: C1=CC=C2C(=C1)C3=NNC4=CC=CC(=C43)C2=O
Outline: as §1

[8] = compound: C1CCN(C1)C(=O)NC2=CC=CC(=C2)NC3=NC=C(C(=N3)NCCC4=CN=CN4)Br
Outline: as §1

[9] = compound: C1CN(CCC1(CC2=CC=C(C=C2)Cl)N)C3=NC=NC4=C3C=CN4
Outline: as §1

[10] = compound: C1COCCN1CCN2C3=CC=CC=C3N=C2NC(=O)C4=CC(=CC=C4)[N+](=O)[O-] [IRAK-1-4 Inhibitor I]
Outline: as §1

Measured: log2 fold change

B4GALT3 (UniProt O60512)
inactive: [1] -0.041 | [2] -0.096 | [3] -0.081 | [4] 0.043 | [5] 0.07 | [6] -0.066 | [7] -0.005 | [8] 0.098 | [9] 0.107 | [10] -0.041

BAG6 (UniProt F6WML8)
inactive: [1] -0.143 | [2] -0.082 | [3] 0.078 | [4] -0.056 | [6] 0.144 | [7] -0.09 | [8] -0.096 | [9] 0.149 | [10] -0.081

BRF1 (UniProt Q92994)
inactive: [1] -0.045 | [2] -0.023 | [3] 0.008 | [4] 0.076 | [5] -0.053 | [6] -0.159 | [7] -0.01 | [8] 0.064 | [9] -0.128 | [10] 0.063
